Experimental data: article PMC12597828
No constants are given. Whether binding was seen depends on the method and setting. Binding can be weak; no strength is given. Sequences can lack the tags named with a protein.

Biological target: T1, TetR–FLAG–MAU2 (UniProt Q9Y6X3)
T1 sequence: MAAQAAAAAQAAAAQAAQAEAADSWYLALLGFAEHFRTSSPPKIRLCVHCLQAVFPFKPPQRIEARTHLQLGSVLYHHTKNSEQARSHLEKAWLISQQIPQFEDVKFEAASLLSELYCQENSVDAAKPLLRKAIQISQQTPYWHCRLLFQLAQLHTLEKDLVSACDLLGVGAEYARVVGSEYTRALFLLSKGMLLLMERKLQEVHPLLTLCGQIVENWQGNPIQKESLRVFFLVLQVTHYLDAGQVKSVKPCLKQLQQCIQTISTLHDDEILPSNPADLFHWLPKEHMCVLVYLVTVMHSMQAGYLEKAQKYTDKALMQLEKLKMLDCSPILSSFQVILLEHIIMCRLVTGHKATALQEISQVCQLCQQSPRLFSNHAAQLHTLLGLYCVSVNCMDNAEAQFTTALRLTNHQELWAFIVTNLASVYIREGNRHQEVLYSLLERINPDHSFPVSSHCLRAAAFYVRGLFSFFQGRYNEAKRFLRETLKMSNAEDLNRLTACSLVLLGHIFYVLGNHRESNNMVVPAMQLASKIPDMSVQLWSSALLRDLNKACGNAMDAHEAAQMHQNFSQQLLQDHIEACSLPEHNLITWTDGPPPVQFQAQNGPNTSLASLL
Assay: ChIP (qPCR and sequencing) of factors co-recruited to TetO arrays by a tethered TetR fusion; HAP1 cells with 27 genomic TetO platforms stably expressing TetR–FLAG–MAU2 or TetR–FLAG–mCherry; 1% formaldehyde cross-linking for 10 min; ChIP with an antibody to each factor (anti-V5 for V5–MAU2); TetO DNA read by qPCR or sequencing; enrichment relative to Cherry cells; recruitment was lost after 1 h doxycycline; NIPBL recruitment was also tested after 2 h RAD21 depletion

- binding: binds
Substance: SMC1 (human (endogenous in HAP1))
